Patent publication US6911537B2, “Xenobiotic compound modulated expression systems and uses therefor” (The Salk Institute for Biological Studies, priority 1998, dated 2005)

Target: T1, SXR (Homo sapiens, UniProt O75469)
T1 sequence (O75469 1-434): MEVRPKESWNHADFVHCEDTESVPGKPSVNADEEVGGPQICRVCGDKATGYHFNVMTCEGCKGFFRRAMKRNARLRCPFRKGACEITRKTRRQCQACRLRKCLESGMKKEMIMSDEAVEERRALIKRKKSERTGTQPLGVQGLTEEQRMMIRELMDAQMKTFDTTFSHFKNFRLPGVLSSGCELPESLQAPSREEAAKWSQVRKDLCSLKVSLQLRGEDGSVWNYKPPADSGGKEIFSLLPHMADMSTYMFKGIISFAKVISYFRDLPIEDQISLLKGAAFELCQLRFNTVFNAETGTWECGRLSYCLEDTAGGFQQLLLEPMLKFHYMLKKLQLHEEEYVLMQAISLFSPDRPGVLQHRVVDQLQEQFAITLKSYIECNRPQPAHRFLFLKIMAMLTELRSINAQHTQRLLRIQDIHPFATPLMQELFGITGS
T1 sequence (P19793 1-462 partner): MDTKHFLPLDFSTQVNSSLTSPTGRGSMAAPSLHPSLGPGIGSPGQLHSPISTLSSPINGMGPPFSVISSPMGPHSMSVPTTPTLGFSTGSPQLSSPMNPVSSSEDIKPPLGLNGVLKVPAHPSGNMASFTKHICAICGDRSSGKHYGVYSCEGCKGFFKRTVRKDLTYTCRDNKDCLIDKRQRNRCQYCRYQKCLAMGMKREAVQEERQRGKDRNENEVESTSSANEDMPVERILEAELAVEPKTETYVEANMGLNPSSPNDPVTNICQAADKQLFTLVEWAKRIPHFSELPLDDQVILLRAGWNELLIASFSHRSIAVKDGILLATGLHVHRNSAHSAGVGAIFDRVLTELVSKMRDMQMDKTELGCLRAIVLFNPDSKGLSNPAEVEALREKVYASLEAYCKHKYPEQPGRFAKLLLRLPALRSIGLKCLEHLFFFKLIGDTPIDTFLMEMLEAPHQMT

## COC(=O)C1=C(C)NC(C)=C(C(=O)OC)C1c1ccccc1[N+](=O)[O-] [nifedipine]
  Activation of human SXR by compounds known to induce CYP3A4: most potent activators
